Results on four molecules are retold here after article doi:10.1101/2025.02.26.640344.

The chains behind the UniProt entries cited, without tags or fusion partners.
UniProt Q9QZL0, whole entry: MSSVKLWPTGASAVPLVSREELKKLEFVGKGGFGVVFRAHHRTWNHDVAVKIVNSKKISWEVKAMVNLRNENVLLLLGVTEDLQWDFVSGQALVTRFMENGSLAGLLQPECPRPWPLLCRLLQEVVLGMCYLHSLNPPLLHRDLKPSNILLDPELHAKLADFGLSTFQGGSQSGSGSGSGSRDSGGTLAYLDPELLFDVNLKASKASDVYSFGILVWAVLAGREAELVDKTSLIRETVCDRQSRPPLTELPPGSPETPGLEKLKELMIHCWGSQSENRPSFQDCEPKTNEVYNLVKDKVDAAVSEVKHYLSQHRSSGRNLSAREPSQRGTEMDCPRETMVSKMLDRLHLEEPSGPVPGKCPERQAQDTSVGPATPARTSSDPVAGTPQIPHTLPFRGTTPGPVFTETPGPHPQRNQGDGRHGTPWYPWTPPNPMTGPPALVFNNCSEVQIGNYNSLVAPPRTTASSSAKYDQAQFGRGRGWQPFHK

Results are given in words; binding and its absence hold for the method and conditions named. For some of these results: Binding seen in cells or lysates may run through a third protein. Some entries that bind do so weakly or less than the wild type. For some of these results: Tags and fused reporters may be left off the sequences shown.

For assay [1], the target named is T1, N-terminal V5-tagged MLKL, in PKLC-RIPK3^2×Fv cells (UniProt Q9D2Y4).
T1 sequence: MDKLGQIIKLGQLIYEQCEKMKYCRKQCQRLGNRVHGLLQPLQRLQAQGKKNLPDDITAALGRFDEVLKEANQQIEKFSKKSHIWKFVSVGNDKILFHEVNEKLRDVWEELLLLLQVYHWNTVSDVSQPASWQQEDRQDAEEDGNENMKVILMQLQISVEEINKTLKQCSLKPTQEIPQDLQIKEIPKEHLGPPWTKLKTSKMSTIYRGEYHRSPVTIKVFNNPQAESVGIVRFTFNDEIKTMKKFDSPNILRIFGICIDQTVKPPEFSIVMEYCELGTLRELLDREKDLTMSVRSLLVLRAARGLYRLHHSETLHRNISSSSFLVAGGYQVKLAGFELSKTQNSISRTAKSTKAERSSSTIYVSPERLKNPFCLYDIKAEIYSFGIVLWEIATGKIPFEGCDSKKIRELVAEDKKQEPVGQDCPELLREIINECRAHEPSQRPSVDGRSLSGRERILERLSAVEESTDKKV
As to the kind of experiment: SEC. For orientation: SEC sorts molecules by how far they enter the pores of the column.

For assay [2], the target named is Flag-RIPK3, doxycycline-inducible, in PKLC-RIPK3^Tet-on cells (UniProt Q9QZL0). Briefly: co-IP.
Assay [3] addresses Flag-RIPK3, doxycycline-inducible, in PKLC-RIPK3^Tet-on cells, Q9QZL0. As to the kind of experiment: co-IP. The settings on record: remark: other sources report otherwise.
Assay [4] has as its target T1, N-terminal V5-tagged MLKL, in PKLC-RIPK3^2×Fv cells. As to the kind of experiment: co-IP.

B1: N-terminal V5-tagged MLKL, in PKLC-RIPK3^2×Fv cells (protein, UniProt Q9D2Y4 1-472)
chain: MDKLGQIIKLGQLIYEQCEKMKYCRKQCQRLGNRVHGLLQPLQRLQAQGKKNLPDDITAALGRFDEVLKEANQQIEKFSKKSHIWKFVSVGNDKILFHEVNEKLRDVWEELLLLLQVYHWNTVSDVSQPASWQQEDRQDAEEDGNENMKVILMQLQISVEEINKTLKQCSLKPTQEIPQDLQIKEIPKEHLGPPWTKLKTSKMSTIYRGEYHRSPVTIKVFNNPQAESVGIVRFTFNDEIKTMKKFDSPNILRIFGICIDQTVKPPEFSIVMEYCELGTLRELLDREKDLTMSVRSLLVLRAARGLYRLHHSETLHRNISSSSFLVAGGYQVKLAGFELSKTQNSISRTAKSTKAERSSSTIYVSPERLKNPFCLYDIKAEIYSFGIVLWEIATGKIPFEGCDSKKIRELVAEDKKQEPVGQDCPELLREIINECRAHEPSQRPSVDGRSLSGRERILERLSAVEESTDKKV
Consider B1, for which, in assay [1], the binding result is “binds”.

B2: MLKL, endogenous in PKLC cells (protein, UniProt Q9D2Y4 1-472)
chain: MDKLGQIIKLGQLIYEQCEKMKYCRKQCQRLGNRVHGLLQPLQRLQAQGKKNLPDDITAALGRFDEVLKEANQQIEKFSKKSHIWKFVSVGNDKILFHEVNEKLRDVWEELLLLLQVYHWNTVSDVSQPASWQQEDRQDAEEDGNENMKVILMQLQISVEEINKTLKQCSLKPTQEIPQDLQIKEIPKEHLGPPWTKLKTSKMSTIYRGEYHRSPVTIKVFNNPQAESVGIVRFTFNDEIKTMKKFDSPNILRIFGICIDQTVKPPEFSIVMEYCELGTLRELLDREKDLTMSVRSLLVLRAARGLYRLHHSETLHRNISSSSFLVAGGYQVKLAGFELSKTQNSISRTAKSTKAERSSSTIYVSPERLKNPFCLYDIKAEIYSFGIVLWEIATGKIPFEGCDSKKIRELVAEDKKQEPVGQDCPELLREIINECRAHEPSQRPSVDGRSLSGRERILERLSAVEESTDKKV
On to B2, for which the binding result in assay [2] was “binds”.

B3: RIPK1, endogenous in PKLC cells, Q60855 1-656 (protein)
chain: MQPDMSLDNIKMASSDLLEKTDLDSGGFGKVSLCYHRSHGFVILKKVYTGPNRAEYNEVLLEEGKMMHRLRHSRVVKLLGIIIEEGNYSLVMEYMEKGNLMHVLKTQIDVPLSLKGRIIVEAIEGMCYLHDKGVIHKDLKPENILVDRDFHIKIADLGVASFKTWSKLTKEKDNKQKEVSSTTKKNNGGTLYYMAPEHLNDINAKPTEKSDVYSFGIVLWAIFAKKEPYENVICTEQFVICIKSGNRPNVEEILEYCPREIISLMERCWQAIPEDRPTFLGIEEEFRPFYLSHFEEYVEEDVASLKKEYPDQSPVLQRMFSLQHDCVPLPPSRSNSEQPGSLHSSQGLQMGPVEESWFSSSPEYPQDENDRSVQAKLQEEASYHAFGIFAEKQTKPQPRQNEAYNREEERKRRVSHDPFAQQRARENIKSAGARGHSDPSTTSRGIAVQQLSWPATQTVWNNGLYNQHGFGTTGTGVWYPPNLSQMYSTYKTPVPETNIPGSTPTMPYFSGPVADDLIKYTIFNSSGIQIGNHNYMDVGLNSQPPNNTCKEESTSRHQAIFDNTTSLTDEHLNPIRENLGRQWKNCARKLGFTESQIDEIDHDYERDGLKEKVYQMLQKWLMREGTKGATVGKLAQALHQCCRIDLLNHLIRASQS
Turning to B3, in assay [3], the binding result is listed as “binds”.

B4: Caspase-8, endogenous in PKLC cells (protein, UniProt O89110 1-480)
chain: MDFQSCLYAIAEELGSEDLAALKFLCLDYIPHKKQETIEDAQKLFLRLREKGMLEEGNLSFLKELLFHISRWDLLVNFLDCNREEMVRELRDPDNAQISPYRVMLFKLSEEVSELELRSFKFLLNNEIPKCKLEDDLSLLEIFVEMEKRTMLAENNLETLKSICDQVNKSLLGKIEDYERSSTERRMSLEGREELPPSVLDEMSLKMAELCDSPREQDSESRTSDKVYQMKNKPRGYCLIINNHDFSKAREDITQLRKMKDRKGTDCDKEALSKTFKELHFEIVSYDDCTANEIHEILEGYQSADHKNKDCFICCILSHGDKGVVYGTDGKEASIYDLTSYFTGSKCPSLSGKPKIFFIQACQGSNFQKGVPDEAGFEQQNHTLEVDSSSHKNYIPDEADFLLGMATVKNCVSYRDPVNGTWYIQSLCQSLRERCPQGDDILSILTGVNYDVSNKDDRRNKGKQMPQPTFTLRKKLFFPP
For the molecule B4, in assay [4], the binding entry is “binds”.
